The other results are listed elsewhere or left out. Shown are side measurements of this screen, not its main read-out; they come without a call. Most of these compounds were active or inconclusive in the main read-out, so they are no random draw. The note in brackets gives the kind of curve behind each potency; many fits are weak.
Assay: qHTS Assay for Lipid Storage Modulators in Drosophila S3 Cells;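 as to cell number change: cells counted by Cell Tracker Red CMTPX staining in the red channel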
Details: BODIPY lipid droplet fluorescence, 18-24 h; for cell number change: measured here: cell count max response, cells fed with added oleic acid
Summary of the method: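 Laser-scanning cytometry quantifies lipid droplet accumulation (500–530 nm total intensity; droplet/cell object ratio) in oleic acid-fed (400 uM added) Drosophila S3 cells treated with a concentration series. 20 uM Triacsin C defined 100% inhibition.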

[1] = measured here: lipid fluorescence (Fed channel) AC50, cells fed with added oleic acid
[2] = measured here: cell number channel AC50, cells fed with added oleic acid

SMILES	cell number change [%]	AC50 [1]	AC50 [2]
C/C(=N\NC(=O)c1ccccc1)c1ccc2c(c1)OCO2	81.1	0.366 µM [rising, full curve]	–
O=C(Nc1ccc([N+](=O)[O-])cc1)c1ccccc1	-22.9	29.1 µM [falling, single point]	–
Fc1ccc(OCc2cc(-c3ccccc3)no2)cc1	20.1	0.058 µM [rising, full curve, poor fit]	–
CCOC(=O)C1CCCN(CCC(=O)Nc2cccc(Cl)c2C)C1 (stereo not given)	26.3	18.4 µM [rising, single point]	–
COc1ccc(/C=N/n2c(C)cc(C)c(C(N)=O)c2=O)cc1	-62.8	0.0259 µM [falling, full curve, poor fit]	29.1 µM [falling, single point]
CCN(C(=O)CCc1nc(-c2ccccc2F)no1)c1cc(OC)ccc1OC	9.96	0.651 µM [rising, partial curve, poor fit]	–
CN(Cc1cccc(F)c1)C(=O)c1cc(=O)[nH]c2ccccc12	1.61	18.4 µM [rising, single point]	–
C#CCC(NC(=O)c1ccc(C(F)(F)F)cc1)C(=O)NCCC (stereo not given)	10.1	8.2 µM [rising, partial curve]	–
CC1(C)CC(=O)C=C(c2ccc3ncccc3c2)C1	7.92	1.64 µM [rising, partial curve, poor fit]	–
CC1(C)SC(=S)N(NC(=O)Nc2ccccc2)C1N(O)C(=O)Nc1cccc2ccccc12 (stereo not given)	-42.1	2.91 µM [rising, partial curve]	2.91 µM [rising, partial curve]
O=C(Nc1ccncc1)c1ccc(S(=O)(=O)Nc2ccccc2)cc1	-10.8	29.1 µM [falling, single point]	–
O=C(CSc1nnc(-c2ccccc2)n1C1CCCCC1)N1CCCC1	-10.7	–	–
O=C(c1ccccc1)n1c(=S)nc2ccccn21	4.19	–	–
Cc1nn(CC(=O)NC2C(=O)N3C(C(=O)O)=C(CSc4nnnn4C)CSC23)cc1Br (stereo not given)	-20.1	23.1 µM [falling, single point]	–
C=CCNCc1cc(=O)n2c(-c3ccccc3)csc2n1	31.7	–	0.651 µM [rising, full curve]
CC(C)(C)NC(=O)Cn1nnc(-c2ccc(Cl)cc2)n1	-0.065	4.11 µM [rising, single point]	–
O=C(CSc1nnc2c3c4c(sc3ncn12)CCCC4)NCc1ccco1	13.7	–	–
Cc1cccc(-c2cc3nc4c(c(N5CCOCC5)n3n2)CCCC4)c1	–	–	6.51 µM [rising, single point]
CN(/C=C/C(=O)C(F)(F)C(F)(F)F)Cc1ccccc1	19.6	2.06 µM [falling, partial curve]	–
C/C(N)=C(/C#N)C(=O)CSc1nc2ccccc2c(=O)n1CCCOC(C)C	-42.9	–	0.00461 µM [falling, full curve, poor fit]
Cc1ccc2nc(SCC(=O)NCCCN3CCCC3=O)[nH]c2c1	39.8	0.82 µM [falling, single point]	0.82 µM [falling, single point]

SMILES	cell number change [%]	AC50 [1]	AC50 [2]
O=C(CCc1[nH]c2ccccc2c1Sc1ccccc1)NCCO	-38.9	–	29.1 µM [falling, single point]
Cn1c(SC(C(=O)Nc2ccc(F)cc2)c2ccccc2)nc2ccccc21 (stereo not given)	-5.62	0.00461 µM [falling, full curve, poor fit]	–
CCOC(=O)C1=C(N)n2c(s/c(=C\c3ccco3)c2=O)=C(C(=O)OC(C)C)C1c1ccco1 (stereo not given)	-10.6	1.46 µM [falling, partial curve]	–
CC(C)(C)NC(=O)CC(CC(=O)O)c1ccccc1 (stereo not given)	0.368	3.66 µM [falling, single point]	6.51 µM [falling, single point]
O=C(CSc1nnc(-c2ccc(Cl)cc2)n1Cc1ccco1)Nc1ccc2c(c1)OCCO2	-0.952	–	–
CCCCn1nnnc1NCc1cc(OC)c(OC)c(OC)c1	13.7	0.146 µM [falling, full curve, poor fit]	–
O=C(CSc1ncn[nH]1)NCCc1ccc(Cl)cc1	13.2	0.631 µM [rising, full curve, poor fit]	–
Cn1c(=O)c2c(ncn2CC(=O)OCC(=O)Nc2cc(Cl)ccc2Cl)n(C)c1=O	29.4	0.517 µM [rising, full curve, poor fit]	–
COC(=O)c1ccc(C(=O)OC)c(NC(=O)C(C)(C)C)c1	29.6	–	–
Cc1cccc(CN2CCN(CC(=O)N3CCCC3)C2=O)c1	22.3	–	–
Cc1ccc(C(C)C)cc1NC(=O)Nc1ccc([N+](=O)[O-])cc1	-30.2	14.6 µM [falling, partial curve]	16.4 µM [falling, single point]
CN(C1CCCCC1)S(=O)(=O)c1ccc(NC(=O)c2ccc(Br)o2)cc1	-51.4	29.1 µM [falling, single point]	–
COc1cccc(CNC(=O)CCc2nnc3ccc(NCCCN4CCCC4=O)nn23)c1	-22.9	–	–
COc1ccc([N+](=O)[O-])c2c(=O)ccoc12	-35.6	–	5.17 µM [falling, partial curve, poor fit]
O=C(CCN1C(=O)[C@@H]2Cc3ccccc3CN2C1=O)Nc1cccc(F)c1	32.1	29.1 µM [rising, single point]	–
CCOC(=O)Cn1nc(-c2ccccc2)c2cnc3ccc(CC)cc3c21	-5.49	1.03 µM [rising, partial curve]	–
CCSC1(SCC)N=C(N)C2(C#N)C(c3ccc(F)cc3)C12C#N (stereo not given)	116	–	20.6 µM [rising, single point]
COC(=O)c1c(NC(=O)c2ccco2)sc2c1CCN(C(C)C)C2	-19.4	7.31 µM [falling, partial curve, poor fit]	–
COc1ccc(N2CCN(S(=O)(=O)c3ccc(OC)c(C(=O)N4CCCCC4)c3)CC2)cc1	-3.75	1.46 µM [falling, partial curve, poor fit]	–
O=c1oc2c(CN3CCOCC3)c(O)ccc2c2c1CCCC2	20	0.92 µM [falling, full curve]	0.92 µM [falling, full curve]
COc1cccc(NC(=O)CC2C(=O)NCCN2C(=S)Nc2ccc(F)cc2)c1 (stereo not given)	-14.8	–	–

SMILES	cell number change [%]	AC50 [1]	AC50 [2]
COc1ccc(Cl)cc1NC(=O)CN(C)CC(=O)Nc1ccc2c(c1)OCO2	101	–	11.6 µM [rising, partial curve]
COc1ccc(CNC(=O)C(c2ccncc2)N(C(=O)Cc2cccs2)c2ccccc2)cc1 (stereo not given)	12.9	0.13 µM [rising, full curve]	–
COc1ccc(CN2CCNC(=O)C2CC(=O)N(C)CCCN2CCOCC2)cc1C (stereo not given)	-8.55	0.13 µM [rising, full curve, poor fit]	–
Nc1nc(C23CC4CC(CC(C4)C2)C3)cs1	-29.1	18.4 µM [falling, single point]	3.66 µM [falling, full curve, poor fit]
COc1ccc(N(CC(O)Cn2c(C)nc3ccccc32)S(=O)(=O)c2ccc(C)cc2)cc1 (stereo not given)	-5.92	0.00461 µM [falling, full curve, poor fit]	0.116 µM [falling, full curve, poor fit]
CCOc1cc(CNc2ccc3c(c2)OCCO3)cc(Br)c1OC	-51.6	–	2.06 µM [rising, single point]
CN(C)S(=O)(=O)c1cccc(CSCc2cccc(S(=O)(=O)N(C)C)c2)c1	-25.2	23.1 µM [falling, single point]	–
COCCNC(=O)/C(C#N)=C\c1ccc(CNS(=O)(=O)c2ccccc2)o1	-14.3	20.6 µM [falling, single point]	–
CCc1nnc(NC(=O)C2COc3ccccc3O2)s1 (stereo not given)	44.5	–	18.4 µM [rising, single point]
COc1ccc2c(c1OC)CN1CCc3cc4c(cc3[C@@H]1[C@@H]2O)OCO4	10.4	2.31 µM [rising, partial curve]	–
O=C(c1cc2nc(-c3ccc(F)cc3)cc(C(F)(F)F)n2n1)N1CCCCC1c1cccnc1 (stereo not given)	-23.7	20.6 µM [falling, single point]	–
O=C1CC(=O)N(Cc2ccco2)C(=S)N1	-75.3	–	29.1 µM [falling, partial curve, poor fit]
Cc1cc(=O)oc2cc(OS(C)(=O)=O)ccc12	–	–	6.51 µM [rising, single point]
Cc1nc2ccccc2cc1C(=O)N/N=C/c1ccco1	-16.7	–	–
CCOC(=O)NC(NC(=S)Nc1ccc(OCC)cc1)C(Cl)(Cl)Cl (stereo not given)	-6.67	0.184 µM [falling, full curve]	–
COc1ccc(-c2cc(C(=O)Nc3c(C)n(C)n(-c4ccccc4)c3=O)no2)cc1	29.3	29.1 µM [rising, single point]	–
CCn1cc([N+](=O)[O-])c(C(=O)N2N=C(c3ccc(O)c(OC)c3)CC2c2ccccc2O)n1 (stereo not given)	-71	29.1 µM [falling, single point]	29.1 µM [falling, single point]
COc1ccccc1-c1nnc2sc(COc3ccccc3)nn12	-19	0.00411 µM [rising, full curve, poor fit]	–
Cc1ccc(NCC(=O)c2ccc([N+](=O)[O-])cc2)cc1	-20.4	23.1 µM [falling, partial curve, poor fit]	–

Some of these compounds in order of length of the SMILES, ascending.
SMILES	cell number change [%]	AC50 [1]	AC50 [2]
Cc1cc(=O)oc2cc(OS(C)(=O)=O)ccc12	–	–	6.51 µM [rising, single point]
COc1ccccc1-c1nnc2sc(COc3ccccc3)nn12	-19	0.00411 µM [rising, full curve, poor fit]	–
CCOC(=O)NC(NC(=S)Nc1ccc(OCC)cc1)C(Cl)(Cl)Cl (stereo not given)	-6.67	0.184 µM [falling, full curve]	–

Reference: PubChem BioAssay AID2685 (National Center for Advancing Translational Sciences (NCATS), 2010)
